Reference: patent EP0999856B1, “RADIOPHARMACEUTICALS FOR IMAGING INFECTION AND INFLAMMATION” (Bristol-Myers Squibb Pharma Company, priority 1996, dated 1998)
Some results were stated once for a whole list of compounds, not compound by compound.

The chains behind the UniProt entries cited, without tags or fusion partners. Where a name states a change or a piece, a line headed by the entry shows the natural chain unless it says otherwise.
UniProt Q15722: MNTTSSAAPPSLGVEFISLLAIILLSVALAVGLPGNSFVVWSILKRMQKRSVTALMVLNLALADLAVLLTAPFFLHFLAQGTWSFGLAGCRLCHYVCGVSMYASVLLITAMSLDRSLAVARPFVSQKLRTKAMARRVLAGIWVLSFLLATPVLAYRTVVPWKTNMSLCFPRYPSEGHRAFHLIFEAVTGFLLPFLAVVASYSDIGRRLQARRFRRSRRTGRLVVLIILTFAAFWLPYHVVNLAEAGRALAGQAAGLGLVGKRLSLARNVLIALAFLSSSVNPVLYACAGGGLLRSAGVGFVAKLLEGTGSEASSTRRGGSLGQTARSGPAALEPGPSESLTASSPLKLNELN

Target: PMN LTB4 receptor (Homo sapiens, UniProt Q15722)
Assay: LTB4 Human Neutrophil (PMN) Binding Assay
Conditions: competition with [3H]LTB4 (1 nM), 10 min at 4° C; call rule not given here

Structure (SMILES): CC(C)(CCCCOc1cc(-c2ccc3c(c2)OCO3)cc(-c2ccccc2)n1)C(=O)N[C@@H](Cc1ccc(O)cc1)C(=O)NS(=O)(=O)c1ccc(NN)nc1 [Example 76, 6-(4-benzo[d]1,3-dioxolan-5-yl-6-phenyl(2-pyridyloxy))-N-(1-(N-((6-hydrazino(3-pyridyl))sulfonyl)cabamoyl)-2-(4-hydroxyphenyl)ethyl)-2,2-dimethylhexanamide]
- activity in the LTB4 Human Neutrophil (PMN) Binding Assay: active

Structure (SMILES): O=C(/C=C/c1nc(CSc2ccccc2Cl)ccc1OCCc1ccccc1)NCCCNC(=O)c1ccc(N/N=C/c2ccccc2S(=O)(=O)O)nc1 [Example 41, 2-Sulfobenzaldehyde (E)-N-[3-(6-Hydrazinonicotinamido)propyl]-3-[6-[[(2-chlorophenyl)thio]methyl]-3-(2-phenylethoxy)-2-pyridinyl]-2-propenamide Hydrazone]
- activity in the LTB4 Human Neutrophil (PMN) Binding Assay: active

Structure (SMILES): O=C(NCCCCCCOc1cc(-c2ccccc2)cc(-c2ccccc2)n1)c1ccc(N/N=C/c2ccccc2S(=O)(=O)O)nc1 [Example 3]
- activity in the LTB4 Human Neutrophil (PMN) Binding Assay: active

Structure (SMILES): CN(CCc1ccccc1)C(=O)Cn1c(C(=O)NC(CCCCNC(=O)c2ccc(NN=Cc3ccccc3S(=O)(=O)O)nc2)C(=O)O)cc2cc(OCc3ccccc3)ccc21 (stereo not drawn) [Example 69]
- activity in the LTB4 Human Neutrophil (PMN) Binding Assay: active

Structure (SMILES): CCCc1c(OCCCOc2cc(O)c(-c3ccc(F)cc3)cc2CC)ccc2c1OC(C(=O)NCCC(=O)OCCNC(=O)c1ccc(N/N=C/c3ccccc3S(=O)(=O)O)nc1)CC2 (stereo not drawn) [Example 18]
- activity in the LTB4 Human Neutrophil (PMN) Binding Assay: active

Structure (SMILES): O=C(O)CCc1c(OCCCCCOc2cc(-c3ccccc3)cc(-c3ccccc3)n2)cccc1OCCCC(=O)NCCCNC(=O)c1ccc(N/N=C/c2ccccc2S(=O)(=O)O)nc1 [Example 14, Conjugate Between 2-[6-[(4,6-Diphenyl-2-pyridinyl)oxy]pentyl]-6-(8-amino-5-aza-4-oxooctyloxy)-benzenepropanoic Acid and Benzenesulfonic Acid, 2-[[[5-[[(2,5-Dioxo-1-pyrrolidinyl)oxy]carbonyl]-2-pyridinyl]-hydrazono]methyl]]
- activity in the LTB4 Human Neutrophil (PMN) Binding Assay: active

Structure (SMILES): CCc1cc(-c2ccnn2C)c(O)cc1OCCCCC(C)(C)CNC(=O)c1ccc(N/N=C/c2ccccc2S(=O)(=O)O)nc1 (single isomer, unassigned) [Example 21, 2-(2-aza-2-((5-(N-(6-(6-ethyl-3-hydroxy-4-(1-methylpyrazol-5-yl)phenoxy)-2,2-dimethylhexyl)carbamoyl)(2-pyridyl))amino)vinyl)benzenesulfonic acid]
- activity in the LTB4 Human Neutrophil (PMN) Binding Assay: active

Structure (SMILES): CC(C)(CCCCOc1cc(-c2ccccc2)cc(-c2ccccc2)n1)CNC(=O)C(CC(=O)O)NC(=O)c1ccc(NN=Cc2ccccc2S(=O)(=O)O)nc1 (stereo not drawn) [Example 65]
- activity in the LTB4 Human Neutrophil (PMN) Binding Assay: active

Structure (SMILES): O=C(O)CCc1c(OCCCCCOc2cc(-c3ccccc3)cc(-c3ccccc3)n2)cccc1OCCCC(=O)NCCCOCCOCCOCCCNC(=O)c1ccc(N/N=C/c2ccccc2S(=O)(=O)O)nc1 [Example 32, 3-(6-(3-(N-(3-(2-(2-(3-((6-((1-Aza-2-(2-sulfophenyl)vinyl)amino)(3-pyridyl))carbonylamino)propoxy)ethoxy)ethoxy)propyl)-carbamoyl)propoxy)2-(5-(4,6-diphenyl(2-pyridyloxy))pentyloxy)phenyl)propanoic Acid]
- activity in the LTB4 Human Neutrophil (PMN) Binding Assay: active

Structure (SMILES): O=C(CCc1nc(CSc2c(Cl)cccc2Cl)ccc1OCCc1ccccc1)NCCNC(=O)c1ccc(N/N=C/c2ccccc2S(=O)(=O)O)nc1 [Example 45, 2-Sulfobenzaldehyde (E)-N-[2-(6-Hydrazinonicotinamido)ethyl]-3-[6-[[(2,6-dichlorophenyl)thio]methyl]-3-(2-phenylethoxy)-2-pyridinyl]-2-propanamide Hydrazone]
- activity in the LTB4 Human Neutrophil (PMN) Binding Assay: active

Structure (SMILES): CCc1cc(-c2ccn(C)n2)c(O)cc1OCCCCC(C)(C)CNC(=O)c1ccc(N/N=C/c2ccccc2S(=O)(=O)O)nc1 (single isomer, unassigned) [Example 22, 2-(2-aza-2-((5-(N-(6-(6-ethyl-3-hydroxy-4-(1-methylpyrazol-5-yl)phenoxy)-2,2-dimethylhexyl)carbamoyl)(2-pyridyl))amino)vinyl)benzenesulfonic acid]
- activity in the LTB4 Human Neutrophil (PMN) Binding Assay: active

Structure (SMILES): O=C(CCCCCOc1cc(-c2ccc3c(c2)OCO3)cc(-c2ccccc2)n1)NC(Cc1ccc(OCCCNC(=O)c2ccc(N/N=C/c3ccccc3S(=O)(=O)O)nc2)cc1)C(=O)O (stereo not drawn) [Example 7, 2-[[[5-[[N-[6-[(4-(3,4-methylenedioxyphenyl)-6-phenyl-2-pyridinyl)oxy]-hexanoyl]-tyrosine-O-[3-propanamino]]-carbonyl]-2-pyridinyl]hydrazono]-methyl]-benzenesulfonic acid]
- activity in the LTB4 Human Neutrophil (PMN) Binding Assay: active

Structure (SMILES): O=C(CCCCCOc1cc(-c2ccccc2)cc(-c2ccccc2)n1)NS(=O)(=O)c1ccc(CNC(=O)c2ccc(N/N=C/c3ccccc3S(=O)(=O)O)nc2)cc1 [Example 11, 2-[[[5-[[[[6-[(4,6-Diphenyl-2-pyridinyl)oxy]-hexanoyl]-4-sulfonamidyl]benzylamino]carbonyl]-2-pyridinyl]-hydrazono]methyl]-benzenesulfonic acid]
- activity in the LTB4 Human Neutrophil (PMN) Binding Assay: active

Structure (SMILES): CC(C)(CCCCOc1cc(-c2ccc3c(c2)OCO3)cc(-c2ccccc2)n1)CNC(=O)c1ccc(N/N=C/c2ccccc2S(=O)(=O)O)nc1 [Example 54, 2-[[[5-[[2,2-Dimethyl-6-[(4-(3,4-methylenedioxyphenyl)-6-phenyl-2-pyridinyl)oxy]-1-hexanamino]carbonyl]-2-pyridinyl]hydrazono]methyl]-benzenesulfonic acid]
- activity in the LTB4 Human Neutrophil (PMN) Binding Assay: active

Structure (SMILES): CCOC(C)SCC(=O)NCC(CCC(=O)NCC(C)(C)CCCCOc1cc(-c2ccc3c(c2)OCO3)cc(-c2ccccc2)n1)NC(=O)CSC(C)OCC (stereo not drawn) [Example 55, N-[2,2-Dimethyl-6-[(4-(3,4-methylenedioxyphenyl)-6-phenyl-2-pyridinyl)oxy]-hexyl]-bis-S-(1-ethoxyethylmercaptoacetyl)pentanoate]
- activity in the LTB4 Human Neutrophil (PMN) Binding Assay: active

Structure (SMILES): O=C(CCCCCOc1cc(-c2ccccc2)cc(-c2ccccc2)n1)N[C@@H](CCCCNC(=O)c1ccc(N/N=C/c2ccccc2S(=O)(=O)O)nc1)C(=O)O [Example 8, 2-[[[5-[[alpha-N-[6-[(4,6-diphenyl-2-pyridinyl)oxy]-hexanoyl]-lysine-epsilon-N-amino]carbonyl]-2-pyridinyl]hydrazono]-methyl]-benzenesulfonic acid]
- activity in the LTB4 Human Neutrophil (PMN) Binding Assay: active

Structure (SMILES): C=CCc1c(OCCCCC(C)(C)CNC(=O)c2ccc(N/N=C/c3ccccc3S(=O)(=O)O)nc2)ccc2c1CCCC2=O [Example 50, 2-Sulfobenzaldehyde 6-[6-(6-Hydrazinonicotinamido]-5,5-dimethylhexyloxy]-5-(2-propenyl)-1,2,3,4-tetrahydronaphthalen-1-one Hydrazone]
- activity in the LTB4 Human Neutrophil (PMN) Binding Assay: active

Structure (SMILES): O=C(/C=C/c1nc(CSc2c(F)c(F)cc(F)c2F)ccc1OCCc1ccccc1)NCCCNC(=O)c1ccc(N/N=C/c2ccccc2S(=O)(=O)O)nc1 [Example 43, 2-Sulfobenzaldehyde (E)-N-[3-(6-Hydrazinonicotinamido)propyl]-3-[6-[[(2,3,5,6-tetrafluorophenyl)thio]methyl]-3-(2-phenylethoxy)-2-pyridinyl]-2-propenamide Hydrazone]
- activity in the LTB4 Human Neutrophil (PMN) Binding Assay: active

Structure (SMILES): C=CCc1c(OCCCCC(C)(C)C(=O)N[C@@H](Cc2ccc(OCCCNC(=O)c3ccc(N/N=C\c4ccccc4S(=O)(=O)O)nc3)cc2)C(=O)O)ccc2c1CCCC2=O [Example 78, 3-(4-(3-((6-((1-aza-2-(2-sulfophenyl)vinyl)amino)(3-pyridyl))carbonylamino)-propoxy)phenyl)-2-(2,2-dimethyl-6-(5-oxo-1-prop-2-enyl(2-6,7,8-trihydronaphthyloxy))hexanoylamino)propanoic acid]
- activity in the LTB4 Human Neutrophil (PMN) Binding Assay: active

Structure (SMILES): CC(C)(C)OC(=O)N1Cc2cc(OCCCCCOc3cc(-c4ccccc4)cc(-c4ccccc4)n3)ccc2CC1C(=O)O (stereo not drawn) [Example 60, 2-((tert-butyl)oxycarbonyl)-7-(5-(4,6-diphenyl(2-pyridyloxy))pentyloxy)-1,2,3,4-tetrahydro-isoquinoline-3-carboxylic acid]
- activity in the LTB4 Human Neutrophil (PMN) Binding Assay: active

Structure (SMILES): C=CCc1c(OCCCC(C)(C)CNC(=O)c2ccc(N/N=C/c3ccccc3S(=O)(=O)O)nc2)ccc2c1CCCC2=O [Example 49, 2-Sulfobenzaldehyde 6-[6-(6-Hydrazinonicotinamido)-4,4-dimethylpentyloxy]-5-(2-propenyl)-1,2,3,4-tetrahydronaphthalen-1-one Hydrazone]
- activity in the LTB4 Human Neutrophil (PMN) Binding Assay: active

Structure (SMILES): CC(C)(CCCCOc1cc(-c2ccccc2)cc(-c2ccccc2)n1)CN(C=O)c1cccnc1 [Example 74, N-(6-(4,6-diphenyl(2-pyridyloxy))-2,2-dimethylhexyl)-3-pyridylformamide]
- activity in the LTB4 Human Neutrophil (PMN) Binding Assay: active

Structure (SMILES): Cc1cccc(C)c1SCc1ccc(OCCc2ccccc2)c(/C=C/C(=O)NCCCNC(=O)c2ccc(N/N=C/c3ccccc3S(=O)(=O)O)nc2)n1 [Example 42, 2-Sulfobenzaldehyde (E)-N-[3-(6-Hydrazinonicotinamido)propyl]-3-[6-[[(2,6-dimethylphenyl)thio]methyl]-3-(2-phenylethoxy)-2-pyridinyl]-2-propenamide Hydrazone]
- activity in the LTB4 Human Neutrophil (PMN) Binding Assay: active

Structure (SMILES): CN(CCc1ccccc1)C(=O)Cn1c(C(=O)NCCCOCCOCCOCCCNC(=O)c2ccc(NN=Cc3ccccc3S(=O)(=O)O)nc2)cc2cc(OCc3ccccc3)ccc21 [Example 66, 2-(2-aza-2-((5-(N-(3-(2-(2-(3-((1-((N-methyl-N-(2-phenylethyl)carbamoyl)methyl)-5-(phenylmethoxy)-indol-2-yl)carbonylamino)propoxy)ethoxy)ethoxy)propyl)-carbamoyl)(2-pyridyl))amino)vinyl)benzenesulfonic acid]
- activity in the LTB4 Human Neutrophil (PMN) Binding Assay: active
